Test results from paper PMC10925992 (Heliyon, 2024).
Counter-ions that a name gives are not always drawn.

By UniProt entry, the sequences of proteins in these tests, tags left out. Residues count along the entry.
UniProt Q93009, 208-560: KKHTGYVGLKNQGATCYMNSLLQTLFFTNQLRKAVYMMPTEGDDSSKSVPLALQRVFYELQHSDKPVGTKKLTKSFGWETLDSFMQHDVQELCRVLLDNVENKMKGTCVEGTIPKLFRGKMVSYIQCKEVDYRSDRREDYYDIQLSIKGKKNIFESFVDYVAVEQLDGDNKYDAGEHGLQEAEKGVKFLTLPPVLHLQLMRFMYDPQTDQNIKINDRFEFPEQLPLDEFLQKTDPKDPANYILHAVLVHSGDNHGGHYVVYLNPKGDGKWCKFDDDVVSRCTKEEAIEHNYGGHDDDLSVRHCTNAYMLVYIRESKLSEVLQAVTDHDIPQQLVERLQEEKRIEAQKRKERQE

What was measured:
[1] = target: catalytic domain of USP7 (USP7-CD) (Homo sapiens, UniProt Q93009); test: STD-NMR titration for dissociation constant; assay type: binding
USP7-CD = USP7-CD (Homo sapiens, UniProt Q93009); test: Thermal shift assay; settings: decrease of Tm of USP7-CD; USP7 10 μM, ligand 1 mM
HCT116 cells = test: MTT anti-proliferation assay; assay type: cell-based; settings: Homo sapiens, HCT-116, 48 h

SMILES	Kd [1] [µM]	Thermal Shift (Δtm) (USP7-CD) [°C]	IC50 (HCT116 cells) [µM]
Cc1ccccc1C(OCCN(C)C)c1ccccc1 (stereo not drawn) [Compound 5, Orphenadrine]	1100 ± 800	2.30	–
CCN(CC)CC#CCOC(=O)C(O)(c1ccccc1)C1CCCCC1 (stereo not drawn) [Compound 6, Oxybutynin HCl]	–	–	36.2 ± 1.03
